Measurements as given in patent US7718804B2, “Quaternary nitrogen heterocyclic compounds for detecting aqueous monosaccharides in physiological fluids” (University of Maryland Biotechnology Institute, priority 2003, dated 2010).

Experiments:
[1] = pKa from normalized fluorescence intensity versus pH, with and without 100 mM sugar; assay type: physicochemical; conditions: pH 3→11
Description: A normalized plot of intensity at 427 nm as a function of pH is shown in FIG. 6, wherein I is the emission intensity at the specified pH and Io is the initial emission intensity at pH 3.0. Though not to be bound by theory, it is likely that the change in fluorescence intensity relative to pH value is attributed to the change in hybridization of the boron atom with increasing pH. At low pH values, the boronic acid group is an electron-deficient Lewis acid that is sp^2-hybridized and thus is trigonal planar. As the pH increases, the anionic form of the boronic acid begins to form, which corresponds to a more electron rich sp^3-hybridized boron atom and an […] shape. The change in the geometry of the boron atom induces the fluorescence spectral changes of the molecular sensing moieties.
Based on previously reported pKa values for boronic acid compounds, these pKa values are the lowest reported for a phenyl boronic acid derivative. […] Importantly, the large decrease in the pKa of the boronic acid-sugar complex relative to the uncomplexed boronic acid, allows for the quantitative detection of monosaccharides at or below physiological pH because substantial optical changes are observed. […]

[2] = Chloride quenching of fluorescence (Stern-Volmer constant); assay type: physicochemical; conditions: in water

**Q.** Which “change of fluorescence intensity with pH” value [1] does the source give for `COc1ccc2c(ccc[n+]2Cc2ccccc2)c1` [BMOQ, N-benzyl-6-methoxyquinolinium bromide] here?
**A.** no corresponding change in intensity with pH change

**Q.** What about the “Stern-Volmer constant KSV (chloride quenching)” value (“Stern-Volmer constant KSV” for short) [2] of the same compound?
**A.** 222 M⁻¹

**Q.** What does the source list for `Cc1ccc2c(ccc[n+]2Cc2ccccc2)c1` [BMQ, N-benzyl-6-methylquinolinium bromide]?
**A.** change of fluorescence intensity with pH [1]: no change in intensity with pH change; Stern-Volmer constant KSV (chloride quenching) [2]: 35.0 M⁻¹

**Q.** For `COc1ccc2c(ccc[n+]2Cc2ccccc2B(O)O)c1.[Br-]` [o-BMOQBA, N-(2-boronobenzyl)-6-methoxyquinolinium bromide], which “Stern-Volmer constant KSV” value [2] is on record?
**A.** 170 M⁻¹

**Q.** Which “Stern-Volmer constant KSV” value [2] does the source give for `Cc1ccc2c(ccc[n+]2Cc2ccccc2B(O)O)c1.[Br-]` [o-BMQBA, N-(2-boronobenzyl)-6-methylquinolinium bromide] here?
**A.** 44.0 M⁻¹
